# Library screening results

Chains of the proteins cited; added tags and fusions are not shown.
UniProt E9BF75, entry or part of it: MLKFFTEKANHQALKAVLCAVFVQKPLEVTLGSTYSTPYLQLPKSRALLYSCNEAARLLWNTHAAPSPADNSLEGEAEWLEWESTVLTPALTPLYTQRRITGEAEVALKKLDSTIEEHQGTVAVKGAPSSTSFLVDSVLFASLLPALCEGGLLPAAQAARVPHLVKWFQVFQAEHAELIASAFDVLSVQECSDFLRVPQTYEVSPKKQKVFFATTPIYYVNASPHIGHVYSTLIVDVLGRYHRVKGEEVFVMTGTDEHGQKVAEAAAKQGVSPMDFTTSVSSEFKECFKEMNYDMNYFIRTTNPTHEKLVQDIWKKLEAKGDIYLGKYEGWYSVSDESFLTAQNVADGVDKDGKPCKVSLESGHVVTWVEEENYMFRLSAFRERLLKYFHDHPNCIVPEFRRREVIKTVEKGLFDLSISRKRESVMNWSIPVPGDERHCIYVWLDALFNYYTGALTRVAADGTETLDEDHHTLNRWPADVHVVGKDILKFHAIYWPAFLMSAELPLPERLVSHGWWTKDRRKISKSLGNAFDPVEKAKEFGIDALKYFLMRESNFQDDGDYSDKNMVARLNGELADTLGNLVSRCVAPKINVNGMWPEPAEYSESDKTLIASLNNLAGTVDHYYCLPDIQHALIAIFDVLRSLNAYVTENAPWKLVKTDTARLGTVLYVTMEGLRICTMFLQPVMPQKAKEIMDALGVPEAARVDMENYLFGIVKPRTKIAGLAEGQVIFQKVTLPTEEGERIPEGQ

The values are deposited in ChEMBL (CHEMBL3988442, “University of Dundee, Small-Polar-MMV Screening Library” (2021)).

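Methionyl-tRNA synthetase (putative), Leishmania donovani (UniProt E9BF75). Primary screen of methionyl-tRNA synthetase; the read-out is not stated. The test concentration is not given. Values are per cent inhibition. About 68,000 compounds were tested under these conditions; 0.035% (about 24) showed 50% or more at least once.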

Results are percentages, as filed. The record does not define 0% and 100%; most values in the screen are far below 50% and negative numbers occur (in some assays of this library far below -100). Compounds were drawn at random from those tested, without regard to their results.

SMILES	inhibition
CCN(CC)CCNC(=O)c1cc(C(C)C)nc(N2CCCC2)n1	2.905
CN(C)C(=O)c1cccc(CN2CCOC(Cn3cncn3)C2)c1 (stereo not shown)	8.832
OC1(CNCc2noc(Cc3ccccc3)n2)CNCCOC1 (stereo not shown)	13.66
CN(C)C(C(=O)N1CC(Oc2ccccc2F)C1)c1ccc(F)cc1 (stereo not shown)	16.12
CCc1noc(C(C)N2CCC(N3CCCC3)CC2)n1 (stereo not shown)	11.89
CSc1[nH]c(=O)c(C(=O)N2CCCC2C2CCCC2)cc1C#N (stereo not shown)	18.92
Cc1ccc(S(=O)(=O)Nc2c(C)nc(N3CCCC3)nc2C)cc1	15.83
Cn1cc(CN2C[C@@H]3COC[C@]3(C(=O)NCc3ccccn3)C2)cn1	17.15
Cn1cc(CNC(=O)NCCOc2ccc(F)c(F)c2)cn1	4.891
COCC(=O)N1CCC2(CC1)CC(=O)N(Cc1ccc(Cl)cc1)C2	11.06
COc1cc(CNCCc2nc(C)cs2)cc2c1OCCO2	18.37
CC1CCN(C(=O)[C@@H]2C[C@@H]3CCN(CC4CCOCC4)C[C@@H]3O2)CC1	14.79
Cc1nc(C)n(C2CCCN(C(=O)c3cn4cccnc4n3)C2)n1 (stereo not shown)	7.977
NC(=O)C1CCN(C(=O)c2cc(S(=O)(=O)N3CCCCC3)cs2)CC1	-4.359
CN(Cc1ccsc1)C(=O)c1ccc(S(=O)(=O)NC(C)(C)C)cc1	21.02
Brc1ccccc1-c1nnc(CNCCn2cccn2)o1	4.789
Cc1nn(C)c2ncnc(N3CCC(O)(CN4CCCC4)CC3)c12	3.581
O=C(NCCn1ccc(-c2ccccn2)n1)c1ccncc1	5.419
CC(C)N[C@@H]1CO[C@H](CNC(=O)Nc2ccccc2)[C@H]1O	5.763
CN(CCO)C[C@@H]1CN(C(=O)Cc2ccc3ccccc3c2)C[C@@H]1CO	3.922
CC(C)n1cnc2c1C(C(=O)NCCC#N)N(Cc1ccccc1)CC2 (stereo not shown)	15.48
CC(C)Nc1ncccc1C(=O)NC1CC(=O)N(CC(F)(F)F)C1 (stereo not shown)	4.57
CCN1CCN(S(=O)(=O)N2CCC(OC)CC2)[C@H]2CS(=O)(=O)C[C@H]21	15.14
c1ccc(CCc2n[nH]c(C3CCC3)n2)cc1	17.98
NC(=O)c1cc(C2CCCN(C(=O)CCc3cccs3)C2)n[nH]1 (stereo not shown)	-2.841
O=C(c1cnccn1)N1CCCC(C2=Nc3ccccc3S(=O)(=O)N2)C1 (stereo not shown)	11.63
CN(C)C1CCCN(C(=O)NCCc2cc(F)ccc2F)C1 (stereo not shown)	3.876
Cc1cccc(CN2C(=O)C[C@@H]3[C@@H]2CCN3Cc2ccsc2)n1	16.35
CSc1cccc(CN(C)C(=O)Cn2ncc(N(C)C)cc2=O)c1	7.161
CCS(=O)(=O)N1CCC(c2nccn2Cc2ccccn2)CC1	10.65
CNC(=O)CC1CCN(Cc2nc(-c3ccc(SC)cc3)oc2C)CC1	16.3
CC(C)COCCCNC(=O)NC(C)c1ccc(-n2cncn2)cc1 (stereo not shown)	11.03
COc1ccc(S(=O)(=O)NCCC(O)c2ccccc2)c(C)c1 (stereo not shown)	6.475
O=C(c1cscn1)N1CCC2(CN(Cc3ccncc3)C2)C1	16.88
CCn1cc(NC(=O)CN2CCC(Oc3ccccc3C)CC2)c(C)n1	9.119
Cc1ncsc1C(=O)NC1CCN(CC(=O)NCc2ccccc2)CC1	14.17
Cc1cc(C)n(CC2CCCN2C(=O)Cc2cn3ccccc3n2)n1 (stereo not shown)	2.821
Cc1cc(C)n(CC2CCCN2C(=O)c2ccc3ccccc3n2)n1 (stereo not shown)	17.66
CCc1nc(CC)n(CC(=O)N(C)Cc2ccc(F)cc2)n1	5.495
O=C(CC1CCCCC1)N1C[C@H]2CC[C@@H]1CN(Cc1cccnc1)C2	12.27
N#CCCN1CC(O)CN(C(=O)c2cccc(C(F)(F)F)c2)CC1=O (stereo not shown)	9.589
CCn1ccnc1CN1CCN(CCOc2cccc(C#N)c2)CC1	6.122
COc1cc2c(c(OC)c1OC)CCN(CCN1CCCCC1)CC2	15.26
CCN1CCC2(CCN(Cc3ccc(OC)cc3)CC2)C1=O	5.042
Cc1ccnn1CCC(=O)N1CCC(c2cnccn2)CC1	14.79
CSc1cccc(NC(=O)N2CCC3(CCC(=O)N(C4CC4)C3)CC2)c1	3.876
CC(C)c1cc(C(=O)N(c2ccc(F)cn2)C2CCOCC2)nn1C	6.015
Cc1nc(CNCc2cccc(OC34CCCN(CC3)C4)c2)n[nH]1 (stereo not shown)	19.68
Cc1ccc(N2CCCC(N(C)Cc3c(C)noc3C)C2)nn1 (stereo not shown)	8.798
Cc1cccc(CN2CCN(c3ncnc4[nH]cnc34)CC2CCO)n1 (stereo not shown)	7.971
CCc1nccn1CCC(=O)N1CC[C@H](CO)[C@H](O)C1	14.81
Cc1cc(NC(=O)c2ccc(F)cc2F)n(C)n1	4.393
CN1CC(=O)N(c2ccccc2)CC12CCN(C(=O)c1ccnnc1)C2 (stereo not shown)	1.918
CCN(CC)S(=O)(=O)N(C)Cc1ccc2c(c1)OCCO2	16.48
O=C(CCc1n[nH]c2c1CCCC2)N1C[C@@H]2CC[C@H](C1)N(CC1CC1)C2	43.4
COC(C)Cc1nc(-c2cnn3c(C)cc(C)nc23)no1 (stereo not shown)	4.79
Cc1noc(C)c1CNC(=O)N1CCC(CO)CC1	20.5
O=C(CN1CC(c2nc(C3CC3)no2)C1)NCC1CCCO1 (stereo not shown)	5.755
CCOC1CCCN(C(=O)c2ccccc2NCc2cccnc2)C1 (stereo not shown)	6.542
CN(C(=O)c1ccn(C)n1)[C@@H]1CCC[C@@H](Oc2ccccc2)[C@@H]1O	11.58
CC(NCC(N)=O)c1c(F)cccc1Cl (stereo not shown)	12.57
COCC(O)CN1CCC(=O)N(CC2CC2)Cc2ccccc21 (stereo not shown)	15.07
O=C(CC1CC1)N[C@@H]1CN(C(=O)c2cccs2)C[C@@H]2CCCO[C@@H]21	11.43
CCCN(Cc1cnn(C)c1)S(=O)(=O)c1ccc(F)c(C#N)c1	20.87
O=S(=O)(c1ccc(Cl)s1)N1CCCn2ncnc21	14.61
O=C(Cc1ccc(F)c(Br)c1)N1CCN(CCO)CC1	8.96
O=C(Nc1cccnc1)Nc1cccc(CN2CCC(O)CC2)c1	3.679
CN1CCCC(N(C)C(=O)c2ccc(NC(=O)c3ccc[nH]3)cc2)C1 (stereo not shown)	13.4
CC(=O)c1ccc(F)cc1-c1cc(NCCO)nc2[nH]ccc12	9.747
CC(=O)N1CCCC1c1nc(C)c2c(n1)N(Cc1ccccn1)CCC2 (stereo not shown)	6.383

For reference, 9 entries once more:

SMILES,inhibition
COC(C)Cc1nc(-c2cnn3c(C)cc(C)nc23)no1 (stereo not shown),4.79
Cc1ncsc1C(=O)NC1CCN(CC(=O)NCc2ccccc2)CC1,14.17
CCn1ccnc1CN1CCN(CCOc2cccc(C#N)c2)CC1,6.122
CSc1cccc(NC(=O)N2CCC3(CCC(=O)N(C4CC4)C3)CC2)c1,3.876
CCS(=O)(=O)N1CCC(c2nccn2Cc2ccccn2)CC1,10.65
CCN(CC)CCNC(=O)c1cc(C(C)C)nc(N2CCCC2)n1,2.905
Cc1nn(C)c2ncnc(N3CCC(O)(CN4CCCC4)CC3)c12,3.581
CC(C)Nc1ncccc1C(=O)NC1CC(=O)N(CC(F)(F)F)C1 (stereo not shown),4.57
NC(=O)c1cc(C2CCCN(C(=O)CCc3cccs3)C2)n[nH]1 (stereo not shown),-2.841